These are yes or no findings as the source states them, for the method shown. Some results given as binding are weak or reduced against the parent protein; the word gives no strength. Sequences can lack the tags named with a protein.
Molecular target: T1, N-terminally strep-tagged GrgA (Chlamydia trachomatis) (UniProt O84512)
T1 sequence: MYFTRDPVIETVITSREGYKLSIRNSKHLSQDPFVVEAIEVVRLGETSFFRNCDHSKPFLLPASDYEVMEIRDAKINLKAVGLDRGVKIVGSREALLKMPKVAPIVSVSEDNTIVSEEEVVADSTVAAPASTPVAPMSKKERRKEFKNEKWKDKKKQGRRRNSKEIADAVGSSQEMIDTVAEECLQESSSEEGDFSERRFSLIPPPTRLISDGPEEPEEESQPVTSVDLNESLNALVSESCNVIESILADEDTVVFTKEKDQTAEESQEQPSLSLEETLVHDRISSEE
Assay: pull-down

B1: CS-σ^66 (natural protein, C. trachomatis, UniProt P18333 1-571, looked up)
chain: MRMDTLDSQAAEAAQEEEIQRKLEELVTLAKDQGFITYEEINEILPPSFDTPEQIDQVLIFLAGMDVQVLNQADVERQKERKKEAKELEGLAKRSEGTPDDPVRMYLKEMGTVPLLTREEEVEISKRIEKAQVQIERIILRFRYSTKEAVSIAQYLINGKERFDKIVSEKEVEDKTHFLNLLPKLISLLKEEDAYLEERLLALKDPALSKPDQARLNDELEKCRIRTQAYLRCFHCRHNVTEDFGEVVFKAYDSFLQLEQQINDLKARAERNKFAAAKLAAARRKLHKREVAAGRTLEEFKKDVRMLQRWMDKSQEAKKEMVESNLRLVISIAKKYTNRGLSFLDLIQEGNMGLMKAVEKFEYRRGYKFSTYATWWIRQAVTRAIADQARTIRIPVHMIETINKVLRGAKKLMMETGKEPTPEELGEELGFTPDRVREIYKIAQHPISLQAEVGDGGESSFGDFLEDTAVESPAEATGYSMLKDKMKEVLKTLTDRERFVLIHRFGLLDGRPKTLEEVGSAFNVTRERIRQIEAKALRKMRHPIRSKQLRAFLDLLEEEKIGSGKIKSYKN
- binding: binds
